Experimental data reported in paper PMC5405935, “Role of Kif15 and its novel mitotic partner KBP in K-fiber dynamics and chromosome alignment” (PLoS ONE, 2017).
Results are given in words; binding and its absence hold for the method and conditions named. In cells and extracts the contact can be indirect. Here binding means that the protein was enriched with, or labelled near, the bait; the list need not be complete. Sequences can lack the tags named with a protein.

Target: T1, Flag-tagged Kif15 (full length, residues 1-1388) (human), Q9NS87
T1 chain: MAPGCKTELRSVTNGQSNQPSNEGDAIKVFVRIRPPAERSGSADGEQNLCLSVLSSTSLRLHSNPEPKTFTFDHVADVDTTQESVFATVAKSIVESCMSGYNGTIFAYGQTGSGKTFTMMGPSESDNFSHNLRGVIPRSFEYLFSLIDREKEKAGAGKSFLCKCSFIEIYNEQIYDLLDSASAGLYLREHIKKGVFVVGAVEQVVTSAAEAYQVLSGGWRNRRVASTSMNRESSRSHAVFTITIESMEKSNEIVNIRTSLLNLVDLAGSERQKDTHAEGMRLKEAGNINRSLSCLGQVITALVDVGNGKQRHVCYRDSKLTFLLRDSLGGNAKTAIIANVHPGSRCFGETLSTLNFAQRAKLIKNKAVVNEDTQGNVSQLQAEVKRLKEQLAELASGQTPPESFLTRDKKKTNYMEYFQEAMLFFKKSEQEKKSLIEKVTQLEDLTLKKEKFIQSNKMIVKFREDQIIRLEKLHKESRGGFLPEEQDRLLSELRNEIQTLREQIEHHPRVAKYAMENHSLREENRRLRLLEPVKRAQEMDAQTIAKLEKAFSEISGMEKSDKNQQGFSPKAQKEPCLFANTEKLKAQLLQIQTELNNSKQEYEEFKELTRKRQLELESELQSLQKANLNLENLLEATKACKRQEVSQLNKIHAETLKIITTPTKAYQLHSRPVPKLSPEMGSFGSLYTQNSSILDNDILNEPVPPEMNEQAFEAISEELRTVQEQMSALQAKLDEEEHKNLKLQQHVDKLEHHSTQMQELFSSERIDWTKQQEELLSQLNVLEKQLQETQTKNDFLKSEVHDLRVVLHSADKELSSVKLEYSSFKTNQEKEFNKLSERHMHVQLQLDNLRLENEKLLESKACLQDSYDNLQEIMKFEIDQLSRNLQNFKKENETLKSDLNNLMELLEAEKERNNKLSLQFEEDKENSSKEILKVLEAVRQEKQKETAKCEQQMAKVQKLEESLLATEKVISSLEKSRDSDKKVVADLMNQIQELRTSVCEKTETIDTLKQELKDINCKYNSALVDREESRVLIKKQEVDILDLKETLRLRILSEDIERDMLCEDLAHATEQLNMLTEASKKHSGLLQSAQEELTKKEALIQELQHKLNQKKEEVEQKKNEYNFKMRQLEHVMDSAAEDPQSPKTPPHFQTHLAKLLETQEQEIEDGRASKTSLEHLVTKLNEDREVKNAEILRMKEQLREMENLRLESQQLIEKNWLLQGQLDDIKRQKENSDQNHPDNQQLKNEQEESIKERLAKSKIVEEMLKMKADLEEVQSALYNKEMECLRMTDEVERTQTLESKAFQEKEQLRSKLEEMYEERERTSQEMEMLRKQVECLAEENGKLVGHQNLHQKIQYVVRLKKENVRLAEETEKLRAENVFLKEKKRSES
Experiment: affinity purification with mass spectrometry; SILAC; anti-Flag M2 affinity gel pull-down from combined lysates of HEK293T and stable Flag-Kif15 HEK293T cells synchronized in mitosis; elution with Flag peptide; three independent experiments
Conditions: remark: other sources report otherwise

B1: KBP-His (full-length His-tagged KBP) (natural protein, human, UniProt Q96EK5 1-621, looked up)
chain: MANVPWAEVCEKFQAALALSRVELHKNPEKEPYKSKYSARALLEEVKALLGPAPEDEDERPEAEDGPGAGDHALGLPAEVVEPEGPVAQRAVRLAVIEFHLGVNHIDTEELSAGEEHLVKCLRLLRRYRLSHDCISLCIQAQNNLGILWSEREEIETAQAYLESSEALYNQYMKEVGSPPLDPTERFLPEEEKLTEQERSKRFEKVYTHNLYYLAQVYQHLEMFEKAAHYCHSTLKRQLEHNAYHPIEWAINAATLSQFYINKLCFMEARHCLSAANVIFGQTGKISATEDTPEAEGEVPELYHQRKGEIARCWIKYCLTLMQNAQLSMQDNIGELDLDKQSELRALRKKELDEEESIRKKAVQFGTGELCDAISAVEEKVSYLRPLDFEEARELFLLGQHYVFEAKEFFQIDGYVTDHIEVVQDHSALFKVLAFFETDMERRCKMHKRRIAMLEPLTVDLNPQYYLLVNRQIQFEIAHAYYDMMDLKVAIADRLRDPDSHIVKKINNLNKSALKYYQLFLDSLRDPNKVFPEHIGEDVLRPAMLAKFRVARLYGKIITADPKKELENLATSLEHYKFIVDYCEKHPEAAQEIEVELELSKEMVSLLPTKMERFRTKMALT
notes: also called recombinant His-tagged KBP; source: E. coli BL21 (DE3), purified (Ni-NTA)
With B1 the binding was “binds”.
